In publication PMC4199759:

B1: recombinant GST-His6-Osh6 protein (protein, UniProt Q02201 1-448)
chain: MGSKKLTVGSDSHRLSKSSFSSNKSSHSATKDQPIDTDDIDEDDESGHNIILNIISQLRPGCDLTRITLPTFILEKKSMLERVTNQLQFPEFLLQAHSEKDPLKRFLYVMKWYLAGWHIAPKAVKKPLNPVLGEYFTAYWDLPNKQQAYYISEQTSHHPPECAYFYMIPESSIRVDGVVIPKSRFLGNSSAAMMDGSTVLQFLDIKDGNGKPEKYVLTQPNVYVRGILFGKMRIELGDHMIIKSPNFQADIEFKTKGYVFGTYDAIEGTVKDYDGNAYYEISGKWNDVMYLKDLKQPRSSPKVFLDTHKESPLRPKVRPLSEQGEYESRKLWKKVTDALAVRNHPVATEEKFQIEDHQRQLAKKRIEDGVEFHPKLFRRSKPGEDLDYCIYKNIPVDEDPEKQIRSILQIAPILPGQQFTDKFFIPAFEKIKSQKKMIENEKQNPAKQ
B2: Osh6p, split-ubiquitin prey (protein, UniProt Q02201 1-448)
chain: B1 chain
B3: C-terminal half of Venus YFP (aa 155-236) fused to Osh6p (protein, UniProt Q02201 1-448)
chain: B1 chain
B4: recombinant GST-His6-Osh3 protein (protein, UniProt P38713 1-996)
chain: METIDIQNRSFVVRWVKCGRGDVINYQIKPLKKSIEVGIYKKLKSSVDDHASAVHIAPDTKTLLDYTTKSLLHKGSSSNIEEHHRRSSQHSHSSSNGSDNKRKERSYSSLSISGIQQQSQEIPLREKLSASGFTLVKRVGNVSGNTMVQGDLEVKDTDYYYAFILDNSSSKNAKKKILFNASVINGDNQSMISTRSTPPARPTALSRTSTQQDMLFRVGQGRYLQGYLLKKRRKRLQGFKKRFFTLDFRYGTLSYYLNDHNQTCRGEIVISLSSVSANKKDKIIIIDSGMEVWVLKATTKENWQSWVDALQTCFDDQFEDKDTSTLEENPDILDDDKEVINKSSPQDHDHLTPTATTKSALSHRQHTQKDMDDIYVPLPSESYATFSMNLRLIQQRLEQCKKDSLSYKPTTLHQRSEGLNGTHSSSSVFTNNRVSSFNHSSSGMTSSDSLASEEVPSNKTYIEHALYNQLADLEVFVSRFVTQGEVLFKDHQILCKKAKDTRVSLTSYLSENDEFFDAEEEISRGVIILPDTEDDINNIVEETPLLGKSDQNEFTKEVQLSGSEQIASSSVESYTTNDENHSRKHLKNRHKNRRRGHPHHQKTKSAQSSTETFTSKDLFALSYPKSVTRRNDIPEAAASPPSLLSFLRKNVGKDLSSIAMPVTSNEPISILQLISETFEYAPLLTKATQRPDPITFVSAFAISFLSIYRDKTRTLRKPFNPLLAETFELIREDMGFRLISEKVSHRPPVFAFFAEHLDWECSYTVTPSQKFWGKSIELNNEGILRLKFKTTGELFEWTQPTTILKNLIAGERYMEPVNEFEVHSSKGDKSHILFDKAGMFSGRSEGFKVSIIPPPSSNRKKETLAGKWTQSLANETTHETIWEVGDLVSNPKKKYGFTKFTANLNEITEIEKGNLPPTDSRLRPDIRAYEEGNVDKAEEWKLKLEQLQRERRNKGQDVEPKYFEKVSKNEWKYITGPKSYWERRKKHDWSDISQLW
B5: Osh3p, split-ubiquitin prey (protein, UniProt P38713 1-996)
chain: B4 chain
B6: Scs2p VAP protein, split-ubiquitin prey (protein, UniProt P40075 1-244)
chain: MSAVEISPDVLVYKSPLTEQSTEYASISNNSDQTIAFKVKTTAPKFYCVRPNAAVVAPGETIQVQVIFLGLTEEPAADFKCRDKFLVITLPSPYDLNGKAVADVWSDLEAEFKQQAISKKIKVKYLISPDVHPAQNQNIQENKETVEPVVQDSEPKEVPAVVNEKEVPAEPETQPPVQVKKEEVPPVVQKTVPHENEKQTSNSTPAPQNQIKEAATVPAENESSSMGIFILVALLILVLGWFYR
B7: recombinant GST-His6-Osh7 protein (protein, UniProt P38755 1-437)
chain: MALNKLKNIPSLTNSSHSSINGIASNAANSKPSGADTDDIDENDESGQSILLNIISQLKPGCDLSRITLPTFILEKKSMLERITNQLQFPDVLLEAHSNKDGLQRFVKVVAWYLAGWHIGPRAVKKPLNPILGEHFTAYWDLPNKQQAFYIAEQTSHHPPESAYFYMIPESNIRVDGVVVPKSKFLGNSSAAMMEGLTVLQFLDIKDANGKPEKYTLSQPNVYARGILFGKMRIELGDHMVIMGPKYQVDIEFKTKGFISGTYDAIEGTIKDYDGKEYYQISGKWNDIMYIKDLREKSSKKTVLFDTHQHFPLAPKVRPLEEQGEYESRRLWKKVTDALAVRDHEVATEEKFQIENRQRELAKKRAEDGVEFHSKLFRRAEPGEDLDYYIYKHIPEGTDKHEEQIRSILETAPILPGQTFTEKFSIPAYKKHGIQKN
B8: Osh7p, split-ubiquitin prey (protein, UniProt P38755 1-437)
chain: B7 chain
B9: Scs2-derived Int/TM construct (Δ1-126), split-ubiquitin prey (domain or fragment, UniProt P40075 127-244)
chain: ISPDVHPAQNQNIQENKETVEPVVQDSEPKEVPAVVNEKEVPAEPETQPPVQVKKEEVPPVVQKTVPHENEKQTSNSTPAPQNQIKEAATVPAENESSSMGIFILVALLILVLGWFYR

Legend:
[1] = target: MBP-tagged TBSV p33 protein (the C-terminal portion) (Tomato bushy stunt virus (TBSV)); test: pull-down; MBP-p33 (C-terminal portion) captured on amylose columns; lysates of E. coli expressing GST-His6-Osh proteins passed through; elution with maltose; Western blot with anti-His antibody; only the target purified
[2] = target: p33 replication protein, split-ubiquitin bait (plasmid pGAD-BT2-N-His33) (Tomato bushy stunt virus (TBSV)); test: two-hybrid; yeast membrane two-hybrid (split-ubiquitin) assay; bait p33, NubG preys; yeast NMY51 (scs2Δ yeast in Figure 5A); growth on TLHA- plates at 30°C
[3] = target: N-terminal portion of Venus (aa 1-155) fused to the CIRV p36 replication protein (Carnation Italian ringspot virus (CIRV)); test: split reporter; BiFC in yeast with the N-terminal (aa 1-155) and C-terminal (aa 155-236) portions of Venus; confocal laser microscopy after 24 hours at 29°C in galactose medium

Row | Binder | binding [1] | binding [2] | further results
1 | B1 | binds |  | 
2 | B2 |  | binds | 
3 | B3 |  |  | binding [3]: binds
4 | B4 | binds |  | 
5 | B5 |  | binds | 
6 | B6 |  | binds | 
7 | B7 | binds |  | 
8 | B8 |  | binds | 
9 | B9 |  | binds | 

No constants are given. Whether binding was seen depends on the method and setting. A result given as binding can be weak or reduced; the word gives no strength. For part of these data: Binding seen in cells or lysates may run through a third protein. For part of these data: Tags and fused reporters may be left off the sequences shown.
